In the supplement of paper PMC7024190:
Where a name gives a salt, the structure may show the parent alone. The list shows a part of the results. Repeats in this data set agree poorly, so a single value says little.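 The cells were human embryonic kidney cells carrying a Renilla luciferase gene, driven by the HSV-TK promoter, on a plasmid put in briefly by transfection. This is the first-round screen of about ten thousand compounds, looking for ones that raise reporter output.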

test system: HEK 293FT; assay: log relative Renilla luciferase luminescence (reporter expression vs reference, reference not stated) (log (base not stated)); higher = higher recombinant reporter expression; conditions: 10 µM; time after transfection 48 h

**Q.** For `OC[C@H]1O[C@@H](n2cnc3c(NC4CCCC4)ncnc32)[C@H](O)[C@@H]1O` [N6-Cyclopentyladenosine], which log is on record?
**A.** -0.032

**Q.** How did the log turn out when `COc1ccc(NS(=O)(=O)c2ccc(I)cc2)cc1N1CCN(C)CC1` was run?
**A.** 0.134

**Q.** `NS(=O)(=O)C#Cc1ccccc1` [Pifithrin->m] was tested. Which log did it give?
**A.** 0.0175

**Q.** How did the log turn out when `Cc1[nH]c(/C=C2\C(=O)Nc3ccccc32)c(C)c1CCC(=O)O` was run?
**A.** 0.0174

**Q.** How did the log turn out when `N#Cc1ccccc1OCC(O)CNCCNC(=O)Nc1ccccc1` (centres undefined) was run?
**A.** -0.0369

**Q.** For `O=C(Nc1cc(C(F)(F)F)cc(C(F)(F)F)c1)c1cc(Cl)ccc1O`, which log is on record?
**A.** -1.06

**Q.** With `COc1ccc(-c2oc3cc(OC)ccc3c2C(=O)c2ccc(C#N)cc2)cc1` as the compound, how does the log read?
**A.** 0.128

**Q.** How did the log turn out when `CCN1CCC[C@H]1CNC(=O)c1cc(S(N)(=O)=O)ccc1OC` [(S)-(-)-Sulpiride] was run?
**A.** 0.0692

**Q.** `CC1CCN(CC[C@H]2CCCN2S(=O)(=O)c2cccc(O)c2)CC1` was tested. Which log did it give?
**A.** 0.215

**Q.** Which log does the source give for `Nc1nc(Nc2ccccc2)nc2c1ncn2[C@@H]1O[C@H](CO)[C@@H](O)[C@H]1O` here?
**A.** -0.0515

**Q.** Which log does the source give for `CCCC[P+](CCCC)(CCCC)Cc1ccc(NC(=O)C(Cc2ccc3ccccc3c2)NC(=NC2CCCCC2)NC2CCCCC2)cc1` (centres undefined) here?
**A.** -0.00108

**Q.** Which log does the source give for `NC(=O)N/N=C/c1ccc(Oc2ccc(F)cc2)cc1` here?
**A.** -0.0547

**Q.** With `CNC(=O)c1cc2c(cn1)[nH]c1ccccc12` as the compound, how does the log read?
**A.** -0.127

**Q.** How did the log turn out when `c1ccc(CN2CCC3(CCc4ccccc43)CC2)cc1` [L-693,403 maleate] was run?
**A.** 0.114

**Q.** With `C[C@]12CC[C@@H]3c4ccc(O)cc4C[C@@H](CCCCCCCCC[S+]([O-])CCCC(F)(F)C(F)(F)F)[C@H]3[C@@H]1CC[C@@H]2O` (some centres undefined) as the compound, how does the log read?
**A.** -0.0811

**Q.** `Nc1[nH]nc2nnc(-c3c(-c4ccccc4)nn4ccccc34)cc12` was tested. Which log did it give?
**A.** -0.0542

**Q.** With `CC(C)c1ccc2c(c1)CC[C@H]1[C@](C)(CN)CCC[C@]21C` [Lylamine hydrochloride] as the compound, how does the log read?
**A.** 0.0525

**Q.** Which log does the source give for `COc1ccc(Nc2ncnc3ccc(OC)cc23)cc1` [MPMQ hydrochloride] here?
**A.** -0.146

**Q.** With `CCC(C)(C)C(=O)O[C@H]1C[C@@H](C)C=C2C=C[C@H](C)[C@H](CC[C@@H]3C[C@@H](O)CC(=O)O3)[C@H]21` [Simvastatin] as the compound, how does the log read?
**A.** 0.0449

**Q.** For `N#C/C(=C\c1ccc(O)c(O)c1)C(=O)NCCCc1ccccc1`, which log is on record?
**A.** 0.023

**Q.** Which log does the source give for `CCc1cc(-c2n[nH]c(C)c2-c2ccc3c(c2)OCCO3)c(O)cc1O` here?
**A.** 0.0285

**Q.** For `CN1CCN2c3ncccc3Cc3ccccc3C2C1` (centres undefined) [Mirtazepine], which log is on record?
**A.** -0.0369

**Q.** Which log does the source give for `CN(C)C(=O)C(=O)c1cn(C)c2cc(Cl)c(C(=O)N3CCC(Cc4ccc(F)cc4)CC3)cc12` here?
**A.** -0.271

**Q.** `O=c1c(-c2ccc(O)cc2)coc2cc(O)ccc12` [Daidzein] was tested. Which log did it give?
**A.** 0.108

**Q.** `Cc1cccc(CCN2CCC(C(=O)c3ccc(NS(C)(=O)=O)cc3)CC2)n1` [E-4031 dihydrochloride] was tested. Which log did it give?
**A.** 0.0999

**Q.** How did the log turn out when `COc1cccc(/C=N/N=C/c2cccc(OC)c2)c1` was run?
**A.** 0.163

**Q.** For `O=C(c1ccc(F)cc1)C1CCN(CCn2c(=S)[nH]c3ccccc3c2=O)CC1` [Altanserin hydrochloride], which log is on record?
**A.** 0.0787

**Q.** For `CC[C@H](C)C(=O)O[C@H]1C[C@H](O)C=C2C=C[C@H](C)[C@H](CC[C@@H](O)C[C@@H](O)CC(=O)O)[C@H]21` [Pravastatin sodium salt], which log is on record?
**A.** -0.247

**Q.** `CCCCNc1c(C(=O)OCC)c(C)nc2c1cnn2CC` [Tracazolate hydrochloride] was tested. Which log did it give?
**A.** 0.0127

**Q.** How did the log turn out when `CC#CCOC(=O)C1=CCCN(C)C1` [Arecaidine but-2-ynyl ester tosylate] was run?
**A.** 0.081

**Q.** How did the log turn out when `NC(C(=O)O)c1ccc(C(=O)O)c(C(=O)O)c1` (racemic) was run?
**A.** 0.00954

**Q.** Which log does the source give for `CC(=O)N(OCc1ccccc1)[C@H]1c2cc(C#N)ccc2OC(C)(C)[C@H]1O` here?
**A.** 0.0562

**Q.** Which log does the source give for `C[C@H]1O[C@H](O[C@H]2[C@H](O)[C@@H](O)[C@@H](O[C@H]3[C@H](O)[C@@H](O)C(O)O[C@@H]3CO)O[C@@H]2CO)[C@H](O)[C@@H](O)[C@@H]1N[C@H]1C=C(CO)[C@@H](O)[C@H](O)[C@H]1O` (some centres undefined) [Acarbose] here?
**A.** -0.0206

**Q.** With `O=C(NCC1CCCCN1)c1cc(OCC(F)(F)F)ccc1OCC(F)(F)F` (centres undefined) [Flecainide acetate] as the compound, how does the log read?
**A.** -0.0275

**Q.** How did the log turn out when `CCCCCCN(CCCCCC)C(=O)Cc1c(-c2ccc(F)cc2)[nH]c2ccccc12` was run?
**A.** -0.0524

**Q.** `COc1ccc(CN2C(=O)C(=O)c3cc(OC(F)(F)F)ccc32)cc1` was tested. Which log did it give?
**A.** 0.026

**Q.** `CC(C)NC[C@H](O)COc1cccc2[nH]ccc12` [(S)-(-)-Pindolol] was tested. Which log did it give?
**A.** -0.0209

**Q.** `c1cc(CN2CCCCC2)cc(OCCCNc2nc3ccccc3s2)c1` [Zolantidine dimaleate] was tested. Which log did it give?
**A.** 0.00743

**Q.** How did the log turn out when `COc1ccc(/C=C/C(=O)Nc2ccccc2C(=O)O)cc1OC` [Tranilast] was run?
**A.** 0.00954
